Reference: PMC4457826
Results are given in words; binding and its absence hold for the method and conditions named. Binding seen in cells or lysates may run through a third protein. Some entries that bind do so weakly or less than the wild type.

Chains of the proteins cited; added tags and fusions are not shown.
UniProt Q93009: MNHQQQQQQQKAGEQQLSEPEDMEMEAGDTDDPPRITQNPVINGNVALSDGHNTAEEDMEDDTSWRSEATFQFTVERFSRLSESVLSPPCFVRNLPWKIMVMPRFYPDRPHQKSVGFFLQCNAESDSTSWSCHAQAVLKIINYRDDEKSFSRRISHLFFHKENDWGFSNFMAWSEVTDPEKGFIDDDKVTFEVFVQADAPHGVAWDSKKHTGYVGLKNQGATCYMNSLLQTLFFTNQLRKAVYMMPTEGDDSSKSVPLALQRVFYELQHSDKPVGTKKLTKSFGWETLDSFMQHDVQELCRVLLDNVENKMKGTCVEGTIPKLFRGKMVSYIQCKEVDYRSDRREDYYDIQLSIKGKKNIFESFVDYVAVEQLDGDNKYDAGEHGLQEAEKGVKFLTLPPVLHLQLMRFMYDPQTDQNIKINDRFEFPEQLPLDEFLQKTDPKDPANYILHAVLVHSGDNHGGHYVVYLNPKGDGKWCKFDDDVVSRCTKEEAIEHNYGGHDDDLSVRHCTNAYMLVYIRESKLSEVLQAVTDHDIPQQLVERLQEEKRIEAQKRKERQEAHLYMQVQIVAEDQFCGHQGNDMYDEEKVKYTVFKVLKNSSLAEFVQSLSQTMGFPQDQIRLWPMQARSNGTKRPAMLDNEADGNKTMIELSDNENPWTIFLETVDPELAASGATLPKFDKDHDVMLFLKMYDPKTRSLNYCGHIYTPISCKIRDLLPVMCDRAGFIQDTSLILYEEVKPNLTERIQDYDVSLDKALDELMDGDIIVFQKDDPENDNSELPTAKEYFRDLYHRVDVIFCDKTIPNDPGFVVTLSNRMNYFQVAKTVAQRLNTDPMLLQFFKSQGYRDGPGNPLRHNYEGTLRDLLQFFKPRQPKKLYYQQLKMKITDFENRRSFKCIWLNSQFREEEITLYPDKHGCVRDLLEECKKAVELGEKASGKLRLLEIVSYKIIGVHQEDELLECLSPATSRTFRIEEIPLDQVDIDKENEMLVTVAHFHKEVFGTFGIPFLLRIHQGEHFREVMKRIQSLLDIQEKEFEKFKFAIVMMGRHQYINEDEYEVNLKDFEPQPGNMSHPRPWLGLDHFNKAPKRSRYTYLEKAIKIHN

Target: myc-tagged WT USP7 (human) (UniProt Q93009)
Assay: co-IP; 293T cells transfected with myc-USP7 (with or without ICP0); RIPA lysate, anti-myc antibody and protein A/G agarose; Western blot for ICP0, GMPS or UHRF1

B1: endogenous UHRF1 (protein, UniProt Q96T88 1-793)
chain: MWIQVRTMDGRQTHTVDSLSRLTKVEELRRKIQELFHVEPGLQRLFYRGKQMEDGHTLFDYEVRLNDTIQLLVRQSLVLPHSTKERDSELSDTDSGCCLGQSESDKSSTHGEAAAETDSRPADEDMWDETELGLYKVNEYVDARDTNMGAWFEAQVVRVTRKAPSRDEPCSSTSRPALEEDVIYHVKYDDYPENGVVQMNSRDVRARARTIIKWQDLEVGQVVMLNYNPDNPKERGFWYDAEISRKRETRTARELYANVVLGDDSLNDCRIIFVDEVFKIERPGEGSPMVDNPMRRKSGPSCKHCKDDVNRLCRVCACHLCGGRQDPDKQLMCDECDMAFHIYCLDPPLSSVPSEDEWYCPECRNDASEVVLAGERLRESKKKAKMASATSSSQRDWGKGMACVGRTKECTIVPSNHYGPIPGIPVGTMWRFRVQVSESGVHRPHVAGIHGRSNDGAYSLVLAGGYEDDVDHGNFFTYTGSGGRDLSGNKRTAEQSCDQKLTNTNRALALNCFAPINDQEGAEAKDWRSGKPVRVVRNVKGGKNSKYAPAEGNRYDGIYKVVKYWPEKGKSGFLVWRYLLRRDDDEPGPWTKEGKDRIKKLGLTMQYPEGYLEALANREREKENSKREEEEQQEGGFASPRTGKGKWKRKSAGGGPSRAGSPRRTSKKTKVEPYSLTAQQSSLIREDKSNAKLWNEVLASLKDRPASGSPFQLFLSKVEETFQCICCQELVFRPITTVCQHNVCKDCLDRSFRAQVFSCPACRYDLGRSYAMQVNQPLQTVLNQLFPGYGNGR
- binding: binds
